Test results taken from patent US5637476.
For part of these data: Negatives hold for the conditions tested. Protein sequences can lack the tags named with them.

Legend:
[1] = target: T1, SfiI restriction endonuclease (Streptomyces fimbriatus) (UniProt O52512); experiment: enzyme reaction in vitro; conditions: purified native protein
T1 sequence (looked up, limits assumed): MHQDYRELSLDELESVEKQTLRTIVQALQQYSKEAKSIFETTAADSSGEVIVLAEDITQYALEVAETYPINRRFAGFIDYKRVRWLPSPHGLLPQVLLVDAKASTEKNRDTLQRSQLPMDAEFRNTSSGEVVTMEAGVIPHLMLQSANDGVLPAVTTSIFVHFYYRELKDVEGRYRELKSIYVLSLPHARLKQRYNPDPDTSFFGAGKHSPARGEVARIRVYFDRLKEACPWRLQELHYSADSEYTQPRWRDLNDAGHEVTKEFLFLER

[2] = target: T2, SfiI modification methylase (M.SfiI) (Streptomyces fimbriatus) (UniProt O52513); experiment: inhibition of the protein; conditions: methylation protects from SfiI cleavage; 50 mM Tris pH 7.5, 10 mM EDTA, 5 mM BME, 0.1 mM AdoMet, 37 C; protein in an extract
T2 sequence (looked up, limits assumed): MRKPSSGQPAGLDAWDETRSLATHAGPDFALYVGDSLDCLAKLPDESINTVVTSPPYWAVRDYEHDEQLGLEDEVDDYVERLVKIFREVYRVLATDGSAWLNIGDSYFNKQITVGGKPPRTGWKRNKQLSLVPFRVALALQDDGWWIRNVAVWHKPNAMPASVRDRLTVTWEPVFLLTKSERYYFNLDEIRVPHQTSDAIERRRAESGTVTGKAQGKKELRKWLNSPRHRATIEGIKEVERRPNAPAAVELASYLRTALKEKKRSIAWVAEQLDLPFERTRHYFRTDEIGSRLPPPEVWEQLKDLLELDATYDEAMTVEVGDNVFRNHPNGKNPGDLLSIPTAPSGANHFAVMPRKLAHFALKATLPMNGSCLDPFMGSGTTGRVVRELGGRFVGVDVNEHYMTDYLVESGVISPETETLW

Row | Sequence | activity on this sequence ([1]; SfiI digestion of library reduced transformants about 10^3 fold, 10 mM MgCl2, 50 C) | activity on this sequence [2] | activity on this sequence ([1]; SfiI methylase modified, nine plasmids carrying methylase gene resistant to SfiI, vector sites intact and cleavable after insert deletion, variant of SfiI linker sites in plasmid pEV328-8-6)
1 | GGCCGCAGCGGCC (double strand) [SfiI linker sites in plasmid pEV328-8-6] | active | active | 
2 | GGCCGCAGCGGCC (double strand) |  |  | not active
